Source: patent publication US10006080B2, “High-selectivity contact activation inhibitor based on infestin-4” (OBSCHESTVO S OGRANICHENNOY OTVETSTVENNOSTYU …, priority 2013, dated 2018)

Amino acid sequences for entries named in this document (tags omitted). A change or cut given only in a name is not applied to a line headed by its entry.
UniProt P00742: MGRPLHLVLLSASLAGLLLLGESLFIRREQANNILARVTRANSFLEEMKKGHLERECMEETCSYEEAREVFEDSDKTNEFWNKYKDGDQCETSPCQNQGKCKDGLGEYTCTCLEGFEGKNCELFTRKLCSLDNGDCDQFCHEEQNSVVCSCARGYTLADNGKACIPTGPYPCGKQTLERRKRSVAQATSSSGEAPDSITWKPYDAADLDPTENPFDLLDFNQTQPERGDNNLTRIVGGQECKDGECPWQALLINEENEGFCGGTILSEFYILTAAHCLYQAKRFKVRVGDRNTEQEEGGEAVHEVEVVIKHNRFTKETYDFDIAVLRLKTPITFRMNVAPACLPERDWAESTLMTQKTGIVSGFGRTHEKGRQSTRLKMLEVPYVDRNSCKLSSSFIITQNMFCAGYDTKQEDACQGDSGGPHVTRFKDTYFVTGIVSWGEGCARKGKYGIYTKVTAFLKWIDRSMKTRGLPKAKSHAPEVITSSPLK

Legend:
[1] = target: activated protein C; experiment: chromogenic protease inhibition test in buffer
[2] = target: T1, fXa (UniProt P00742 41-179; P00742 235-488, limits assumed); experiment: chromogenic protease inhibition test in buffer
T1 construct: also called factor Xa

binding [1]: binds
B1: corn trypsin inhibitor (other, UniProt P01088 29-138, looked up)
chain: SAGTSCVPGWAIPHNPLPSCRWYVTSRTCGIGPRLPWPELKRRCCRELADIPAYCRCTALSILMDGAIPPGPDAQLEGRLEDLPGCPREVQRGFAATLVTEAECNLATIS
notes: Isolated from corn; also called CTI

binding [2]: binds
B2: native infestin-4, fusion protein with thioredoxin I E. coli containing polyhistidine clusters (other)
chain: EVRNPCACFRNYVPVCGSDGKTYGNPCMLNCAAQTKVPGLKLVHEGRCQRSNVEQF
notes: It says MutB differs from it at positions 9, 12 and 14 only; also called Inf4; not shown: thioredoxin I of E. coli, fusion partner; polyhistidine clusters

No constants are given. Whether binding was seen depends on the method and setting. Binding can be weak; no strength is given. For some assays here: Where a sequence is shown, tags or fusion partners need not be part of it. Each block holds one binder with its values, some of them ahead of it.
